The results in this text go back to article PMC10279885.

These are yes or no findings as the source states them, for the method shown. In cells and extracts the contact can be indirect. Binding can be weak; no strength is given. For some assays here: Sequences can lack the tags named with a protein.

Assay [1] addresses T1, NAI2 (full length), expressed as NAI2:NV and as NAI2:CV for BiFC (Arabidopsis thaliana) (UniProt Q9LSB4).
T1 sequence: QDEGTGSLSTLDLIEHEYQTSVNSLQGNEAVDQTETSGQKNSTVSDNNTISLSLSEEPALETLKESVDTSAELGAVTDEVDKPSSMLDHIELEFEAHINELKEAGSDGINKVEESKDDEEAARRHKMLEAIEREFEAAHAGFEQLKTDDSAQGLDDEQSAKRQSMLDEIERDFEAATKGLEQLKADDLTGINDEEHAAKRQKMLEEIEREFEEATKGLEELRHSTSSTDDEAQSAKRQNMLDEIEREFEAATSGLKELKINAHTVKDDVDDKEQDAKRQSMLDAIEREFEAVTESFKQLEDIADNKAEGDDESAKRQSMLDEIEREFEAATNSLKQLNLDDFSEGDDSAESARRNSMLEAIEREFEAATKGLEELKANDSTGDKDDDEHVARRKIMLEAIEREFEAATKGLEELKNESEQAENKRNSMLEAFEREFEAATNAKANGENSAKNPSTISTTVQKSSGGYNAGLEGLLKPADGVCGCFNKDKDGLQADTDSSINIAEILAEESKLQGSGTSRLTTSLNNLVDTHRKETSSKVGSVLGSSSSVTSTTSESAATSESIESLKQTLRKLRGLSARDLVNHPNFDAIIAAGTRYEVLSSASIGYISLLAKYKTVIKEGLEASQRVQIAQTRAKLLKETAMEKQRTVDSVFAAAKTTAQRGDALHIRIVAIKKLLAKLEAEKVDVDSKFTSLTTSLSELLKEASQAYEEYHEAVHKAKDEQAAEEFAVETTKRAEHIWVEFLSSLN
In words: split reporter; BiFC with NV and CV fragments of Venus in N. benthamiana leaves, confocal microscopy 5 d after agro-infiltration.

Assay [2] has as its target T2, NAI2 (wild type), expressed as NAI2:HA and as NAI2:GFP (Arabidopsis thaliana) (UniProt Q9LSB4).
T2 sequence: T1 sequence
Put plainly: co-IP; N. benthamiana leaf extracts 5 d after agro-infiltration; IP buffer 50 mM Tris-HCl pH 7.5, 150 mM NaCl, 0.1% Triton X-100; anti-GFP antibody overnight at 4 °C, protein-A beads; western blot with anti-HA and anti-GFP.

Turning to “CV alone (C-terminal fragment of Venus fluorescent protein) (domain or fragment)”, the binding entry in assay [1] is reported as “no binding”.
On the same count and under the same terms, under NAI2ΔED:CV (from UniProt Q9LSB4) stands “binds”.
With NAI2ΔED:HA (from UniProt Q9LSB4), in assay [2], the binding entry is “binds”.
As for “NAI2ΔND:CV (Arabidopsis thaliana) (domain or fragment)”, the binding entry in assay [1] is reported as “binds weakly”.
For the substance “NAI2ΔND:HA (Arabidopsis thaliana) (domain or fragment)”, the binding result in assay [2] was “no binding”.
